The results in this text go back to PMC7618180.

The chains behind the UniProt entries cited, without tags or fusion partners.
UniProt Q9SRU2: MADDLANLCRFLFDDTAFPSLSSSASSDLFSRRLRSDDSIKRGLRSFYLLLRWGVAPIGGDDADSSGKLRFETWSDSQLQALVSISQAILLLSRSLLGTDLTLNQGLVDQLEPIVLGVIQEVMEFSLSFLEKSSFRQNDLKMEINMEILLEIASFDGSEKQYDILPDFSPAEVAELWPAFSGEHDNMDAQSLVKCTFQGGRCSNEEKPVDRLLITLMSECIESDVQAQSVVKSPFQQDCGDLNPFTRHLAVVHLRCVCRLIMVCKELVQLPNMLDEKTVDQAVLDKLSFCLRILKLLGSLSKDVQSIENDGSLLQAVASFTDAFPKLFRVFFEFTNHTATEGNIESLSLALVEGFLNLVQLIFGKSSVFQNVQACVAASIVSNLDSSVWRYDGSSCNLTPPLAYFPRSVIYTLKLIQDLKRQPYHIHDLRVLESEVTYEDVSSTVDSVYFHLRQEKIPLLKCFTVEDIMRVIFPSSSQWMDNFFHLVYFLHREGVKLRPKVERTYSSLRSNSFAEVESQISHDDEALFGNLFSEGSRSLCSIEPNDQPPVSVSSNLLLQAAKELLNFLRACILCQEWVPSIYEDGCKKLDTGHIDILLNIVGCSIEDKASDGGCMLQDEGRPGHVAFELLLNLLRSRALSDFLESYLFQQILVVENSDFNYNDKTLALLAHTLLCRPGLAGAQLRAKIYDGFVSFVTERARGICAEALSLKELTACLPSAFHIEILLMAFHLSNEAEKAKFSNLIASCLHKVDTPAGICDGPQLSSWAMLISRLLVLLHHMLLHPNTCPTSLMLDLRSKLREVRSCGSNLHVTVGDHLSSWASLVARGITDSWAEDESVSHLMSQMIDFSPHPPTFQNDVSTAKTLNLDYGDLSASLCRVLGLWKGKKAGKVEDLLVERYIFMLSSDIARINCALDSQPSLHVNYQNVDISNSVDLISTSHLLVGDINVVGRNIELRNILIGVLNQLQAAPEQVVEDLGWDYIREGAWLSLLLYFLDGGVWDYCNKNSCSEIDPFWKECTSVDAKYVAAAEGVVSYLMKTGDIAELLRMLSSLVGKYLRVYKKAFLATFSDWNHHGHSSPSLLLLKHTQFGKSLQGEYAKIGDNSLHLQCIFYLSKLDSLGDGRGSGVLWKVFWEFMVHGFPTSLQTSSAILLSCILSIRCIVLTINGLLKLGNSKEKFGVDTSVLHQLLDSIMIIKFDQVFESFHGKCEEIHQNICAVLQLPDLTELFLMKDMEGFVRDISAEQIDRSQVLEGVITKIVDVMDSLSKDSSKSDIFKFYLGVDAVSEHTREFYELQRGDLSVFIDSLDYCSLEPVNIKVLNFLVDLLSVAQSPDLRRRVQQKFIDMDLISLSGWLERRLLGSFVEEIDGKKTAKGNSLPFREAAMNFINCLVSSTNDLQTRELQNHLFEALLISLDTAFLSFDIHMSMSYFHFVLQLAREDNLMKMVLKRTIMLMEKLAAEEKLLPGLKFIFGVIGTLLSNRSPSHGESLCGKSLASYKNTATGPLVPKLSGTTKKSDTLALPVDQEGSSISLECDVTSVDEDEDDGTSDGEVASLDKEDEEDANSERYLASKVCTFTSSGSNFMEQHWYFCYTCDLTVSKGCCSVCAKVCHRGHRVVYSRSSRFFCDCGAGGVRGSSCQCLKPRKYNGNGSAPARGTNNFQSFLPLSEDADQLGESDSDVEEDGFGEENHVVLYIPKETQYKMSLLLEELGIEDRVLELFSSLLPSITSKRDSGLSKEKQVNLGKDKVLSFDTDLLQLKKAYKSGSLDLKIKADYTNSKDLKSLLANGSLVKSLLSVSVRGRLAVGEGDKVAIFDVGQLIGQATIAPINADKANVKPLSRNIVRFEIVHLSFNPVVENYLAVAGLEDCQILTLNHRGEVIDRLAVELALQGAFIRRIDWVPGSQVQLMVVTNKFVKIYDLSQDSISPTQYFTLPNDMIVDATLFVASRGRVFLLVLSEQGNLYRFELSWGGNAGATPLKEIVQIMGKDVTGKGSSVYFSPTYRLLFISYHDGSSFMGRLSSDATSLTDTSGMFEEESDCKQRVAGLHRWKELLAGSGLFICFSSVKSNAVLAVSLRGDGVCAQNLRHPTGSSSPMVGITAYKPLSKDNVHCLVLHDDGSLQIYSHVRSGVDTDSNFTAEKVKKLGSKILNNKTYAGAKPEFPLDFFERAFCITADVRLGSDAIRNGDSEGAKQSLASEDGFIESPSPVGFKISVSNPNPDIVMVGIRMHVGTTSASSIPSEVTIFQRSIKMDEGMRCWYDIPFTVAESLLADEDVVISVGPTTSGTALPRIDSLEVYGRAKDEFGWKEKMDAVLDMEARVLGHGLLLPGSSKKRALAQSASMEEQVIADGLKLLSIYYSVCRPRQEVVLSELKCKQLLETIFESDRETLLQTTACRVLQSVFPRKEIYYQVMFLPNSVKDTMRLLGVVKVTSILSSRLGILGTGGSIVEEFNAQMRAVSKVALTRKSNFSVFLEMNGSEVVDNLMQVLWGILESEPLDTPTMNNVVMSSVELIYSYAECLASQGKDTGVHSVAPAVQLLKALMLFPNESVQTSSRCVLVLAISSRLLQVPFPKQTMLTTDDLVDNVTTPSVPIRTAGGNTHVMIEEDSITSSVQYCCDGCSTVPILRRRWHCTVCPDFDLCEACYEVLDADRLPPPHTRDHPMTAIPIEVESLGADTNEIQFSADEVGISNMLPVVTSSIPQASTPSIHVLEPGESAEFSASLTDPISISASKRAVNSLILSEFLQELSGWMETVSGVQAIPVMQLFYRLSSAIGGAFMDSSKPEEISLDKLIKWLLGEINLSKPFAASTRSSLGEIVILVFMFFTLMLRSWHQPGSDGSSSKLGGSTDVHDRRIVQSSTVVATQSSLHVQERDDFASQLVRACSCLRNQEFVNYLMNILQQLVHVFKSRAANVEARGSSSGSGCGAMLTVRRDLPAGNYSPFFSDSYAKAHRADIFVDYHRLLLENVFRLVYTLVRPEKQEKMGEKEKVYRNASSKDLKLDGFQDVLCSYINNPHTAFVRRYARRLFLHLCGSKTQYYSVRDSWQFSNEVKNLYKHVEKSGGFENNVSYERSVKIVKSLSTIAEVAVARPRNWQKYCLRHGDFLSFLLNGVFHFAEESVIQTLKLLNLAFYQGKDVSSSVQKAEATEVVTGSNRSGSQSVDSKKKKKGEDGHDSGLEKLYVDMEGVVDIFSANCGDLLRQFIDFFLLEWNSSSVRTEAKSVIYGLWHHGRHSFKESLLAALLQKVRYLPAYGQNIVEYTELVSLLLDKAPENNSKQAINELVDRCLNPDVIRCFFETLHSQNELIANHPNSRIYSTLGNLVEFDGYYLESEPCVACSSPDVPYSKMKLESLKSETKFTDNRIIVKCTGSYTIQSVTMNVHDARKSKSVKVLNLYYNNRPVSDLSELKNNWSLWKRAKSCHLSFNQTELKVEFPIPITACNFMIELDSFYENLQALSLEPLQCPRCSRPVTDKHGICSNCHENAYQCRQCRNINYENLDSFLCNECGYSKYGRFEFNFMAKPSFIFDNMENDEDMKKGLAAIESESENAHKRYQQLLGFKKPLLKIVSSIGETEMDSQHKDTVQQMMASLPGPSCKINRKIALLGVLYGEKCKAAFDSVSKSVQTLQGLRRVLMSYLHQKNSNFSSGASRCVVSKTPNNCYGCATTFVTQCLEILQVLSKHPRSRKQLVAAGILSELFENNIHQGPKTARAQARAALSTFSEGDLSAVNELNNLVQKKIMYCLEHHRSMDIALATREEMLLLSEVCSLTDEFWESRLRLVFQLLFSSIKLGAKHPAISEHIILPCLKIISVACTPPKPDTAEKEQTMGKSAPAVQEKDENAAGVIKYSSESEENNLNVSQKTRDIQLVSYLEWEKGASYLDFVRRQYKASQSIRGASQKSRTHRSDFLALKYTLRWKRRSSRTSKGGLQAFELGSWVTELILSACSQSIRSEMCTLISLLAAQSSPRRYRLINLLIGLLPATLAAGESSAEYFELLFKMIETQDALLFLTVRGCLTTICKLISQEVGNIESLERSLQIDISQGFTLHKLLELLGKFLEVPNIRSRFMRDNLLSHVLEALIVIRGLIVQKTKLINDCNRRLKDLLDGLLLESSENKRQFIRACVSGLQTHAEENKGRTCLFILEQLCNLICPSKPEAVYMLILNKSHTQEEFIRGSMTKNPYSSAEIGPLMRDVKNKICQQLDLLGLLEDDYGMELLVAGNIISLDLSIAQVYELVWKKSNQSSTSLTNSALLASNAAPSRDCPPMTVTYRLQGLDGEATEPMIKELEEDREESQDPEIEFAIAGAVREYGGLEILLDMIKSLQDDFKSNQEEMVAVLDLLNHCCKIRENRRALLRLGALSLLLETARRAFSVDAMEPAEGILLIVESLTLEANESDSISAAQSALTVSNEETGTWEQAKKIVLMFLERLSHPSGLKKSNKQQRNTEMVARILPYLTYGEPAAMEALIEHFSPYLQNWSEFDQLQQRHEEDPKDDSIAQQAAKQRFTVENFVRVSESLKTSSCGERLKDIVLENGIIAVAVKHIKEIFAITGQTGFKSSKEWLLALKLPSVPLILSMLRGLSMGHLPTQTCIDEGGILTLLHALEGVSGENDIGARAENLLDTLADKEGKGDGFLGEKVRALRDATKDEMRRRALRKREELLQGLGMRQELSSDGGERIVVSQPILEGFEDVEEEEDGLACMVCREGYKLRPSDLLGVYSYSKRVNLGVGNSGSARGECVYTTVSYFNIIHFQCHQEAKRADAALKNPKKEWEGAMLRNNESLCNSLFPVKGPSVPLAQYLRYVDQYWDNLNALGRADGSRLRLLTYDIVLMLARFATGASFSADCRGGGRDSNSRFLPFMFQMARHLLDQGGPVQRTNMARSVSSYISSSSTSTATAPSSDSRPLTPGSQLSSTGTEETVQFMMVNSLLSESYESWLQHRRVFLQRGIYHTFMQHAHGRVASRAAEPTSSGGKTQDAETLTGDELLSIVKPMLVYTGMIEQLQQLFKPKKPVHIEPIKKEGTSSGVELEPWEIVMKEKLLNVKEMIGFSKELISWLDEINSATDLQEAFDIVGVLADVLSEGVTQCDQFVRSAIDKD

Assay [1] concerns the target Arabidopsis thaliana UBR4 (also known as BIG) (Arabidopsis thaliana) (UniProt Q9SRU2). In words: cryo-EM structure; complex from co-expression of AtUBR4, AtDI19 and AtCALM1; medium resolution map of the dimerization interface, modelled using AlphaFold3; both purified.
Assay [2] addresses C. elegans UBR4 (C. elegans). In words: cryo-EM structure; C. elegans UBR4 complex; low resolution map from a global 3D classification shows a bound substrate; both purified.

These are yes or no findings as the source states them, for the method shown. Some binding calls cover weakened binding; strength is not graded here.

B1: Arabidopsis thaliana Drought-induced protein 19 (DI19) (protein, UniProt Q39083 1-206)
chain: MDADSKRFLATLRSRSEMLMGFEEIDGDDDFQEEFACPFCAESYDIIGLCCHIDDEHTLESKNAVCPVCSLKVGVDIVAHITLHHGSLFKLQRKRKSRKSGTNSTLSLLRKELREGDLQRLLGFTSRNGSVASSVTPDPLLSSFISPTRSQSSPAPRQTKNVSEDKQIERKRQVFISPVSLKDREERRHKSEFVQRLLSSAIFDEV
Take B1: the binding result in assay [1] was “binds”.

B2: C. elegans KCMF1 (ZK652.6) (protein, UniProt P34664 1-575)
chain: MVTPLTGTHEGVSCDGCAFTAFAGNRYKCLRCSDYDLCFSCFTTKNYGDQQTIADIPIHDESHPMQLILSSVDFDLVYQGDPTRHYDERKIVSFTCPYCNITGLTERQFGTHVLSQHPEAPGYSVICPLCIGNTEMEHIQSKETENLSVHWTEIHLHTMENLFRSTEPITTRPVQRRPMLARRGNRAGVSRTAAQGRPLQDEIGAEMAALLRNMGPDSVEDIRRFTEMMTVPLLPGIRSSQRLMTSTGDRPTVVVESAVTHQDPNVQQVIRPLATIPIYPPTSDESGDETPQPAADSADESEDDNDIQELDDMQPIVEDEALKKDEFWKTLKTRISEEDVDLILETMKSTAKVKEDIDDKMPVWTQRPLKRLANAAQVTTTSDSEGDPGWLPLSFETTPIRSTGCGGYWSDKRFLRPRKMQREQSVASSNAEIMEKAEIALALIRASCLHEPVFTDPTKPDIALKEALQHLRLGEKPAKMMEYQAAEELVNMPERDPITTGEMEVEIPDFTARGYGQIVDGNIPLGVVPEADEAITNSEDEEIVGGETSGDDEDEQEDDENDSQDSSVPEEINID
Consider B2, for which, in assay [2], the binding entry was “binds”.
